# Laboratory results published in PMC6899445.
# Protein sequences, listed by entry. Tags and fused reporters are not part of them. Residues count along the entry.
# UniProt Q99K10, residues 46-843: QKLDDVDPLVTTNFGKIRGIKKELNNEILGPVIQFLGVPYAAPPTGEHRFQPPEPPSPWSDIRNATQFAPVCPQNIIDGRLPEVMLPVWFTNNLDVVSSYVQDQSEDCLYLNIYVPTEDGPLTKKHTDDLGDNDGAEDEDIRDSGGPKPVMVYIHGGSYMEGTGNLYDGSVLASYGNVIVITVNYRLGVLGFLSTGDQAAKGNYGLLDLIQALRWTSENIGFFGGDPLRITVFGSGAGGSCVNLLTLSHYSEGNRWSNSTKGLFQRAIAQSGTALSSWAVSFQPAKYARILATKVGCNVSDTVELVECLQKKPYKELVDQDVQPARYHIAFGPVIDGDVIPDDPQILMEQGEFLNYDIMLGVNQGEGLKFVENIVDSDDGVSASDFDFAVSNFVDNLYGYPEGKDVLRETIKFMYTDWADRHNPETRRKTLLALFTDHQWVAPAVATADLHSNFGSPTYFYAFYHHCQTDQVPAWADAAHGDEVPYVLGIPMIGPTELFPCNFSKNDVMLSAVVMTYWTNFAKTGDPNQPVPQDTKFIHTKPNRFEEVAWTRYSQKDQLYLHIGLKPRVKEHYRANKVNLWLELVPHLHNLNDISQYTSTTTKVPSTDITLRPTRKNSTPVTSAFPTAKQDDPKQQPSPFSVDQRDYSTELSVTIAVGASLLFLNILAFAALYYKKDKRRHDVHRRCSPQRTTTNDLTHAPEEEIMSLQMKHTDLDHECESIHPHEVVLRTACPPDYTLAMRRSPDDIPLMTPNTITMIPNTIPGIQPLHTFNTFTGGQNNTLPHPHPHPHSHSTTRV
# UniProt Q62765, residues 46-843: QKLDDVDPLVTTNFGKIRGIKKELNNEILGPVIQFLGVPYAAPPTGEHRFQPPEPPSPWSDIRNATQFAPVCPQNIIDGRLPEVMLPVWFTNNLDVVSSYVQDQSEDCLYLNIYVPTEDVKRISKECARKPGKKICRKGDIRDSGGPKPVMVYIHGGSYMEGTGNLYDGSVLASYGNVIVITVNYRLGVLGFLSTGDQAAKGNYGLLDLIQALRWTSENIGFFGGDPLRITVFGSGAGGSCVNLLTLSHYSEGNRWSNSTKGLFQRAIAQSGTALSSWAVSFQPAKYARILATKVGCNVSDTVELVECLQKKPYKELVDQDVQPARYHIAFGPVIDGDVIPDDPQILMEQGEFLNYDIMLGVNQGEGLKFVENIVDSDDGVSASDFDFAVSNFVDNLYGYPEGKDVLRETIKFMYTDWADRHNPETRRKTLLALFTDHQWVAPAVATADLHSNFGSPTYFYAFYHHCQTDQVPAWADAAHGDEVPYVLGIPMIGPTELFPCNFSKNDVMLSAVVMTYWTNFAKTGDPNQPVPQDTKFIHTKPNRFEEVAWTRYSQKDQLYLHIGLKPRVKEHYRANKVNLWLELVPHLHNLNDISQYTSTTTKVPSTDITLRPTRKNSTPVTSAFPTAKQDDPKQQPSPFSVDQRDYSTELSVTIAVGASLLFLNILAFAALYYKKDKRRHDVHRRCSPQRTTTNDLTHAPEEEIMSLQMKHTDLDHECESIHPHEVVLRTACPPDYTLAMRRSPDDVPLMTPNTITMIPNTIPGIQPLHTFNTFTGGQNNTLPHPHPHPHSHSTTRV
# Results are given in words; binding and its absence hold for the method and conditions named. In cells and extracts the contact can be indirect. Some results given as binding are weak or reduced against the parent protein; the word gives no strength. For part of these data: Where a sequence is shown, tags or fusion partners need not be part of it.
# T1: full-length TSPAN5-GFP, wild-type (human) (UniProt P62079)
# T1 sequence: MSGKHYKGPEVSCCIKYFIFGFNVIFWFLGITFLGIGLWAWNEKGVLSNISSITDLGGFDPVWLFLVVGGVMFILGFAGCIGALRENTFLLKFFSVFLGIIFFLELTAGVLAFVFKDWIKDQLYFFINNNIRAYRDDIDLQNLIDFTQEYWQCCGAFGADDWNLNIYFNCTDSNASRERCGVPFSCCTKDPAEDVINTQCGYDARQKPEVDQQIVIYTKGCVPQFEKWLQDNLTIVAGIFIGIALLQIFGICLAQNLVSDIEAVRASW
# T2: TSPAN5 (rat (endogenous in adult rat hippocampus and cortex)) (UniProt Q68VK5)
# T2 sequence: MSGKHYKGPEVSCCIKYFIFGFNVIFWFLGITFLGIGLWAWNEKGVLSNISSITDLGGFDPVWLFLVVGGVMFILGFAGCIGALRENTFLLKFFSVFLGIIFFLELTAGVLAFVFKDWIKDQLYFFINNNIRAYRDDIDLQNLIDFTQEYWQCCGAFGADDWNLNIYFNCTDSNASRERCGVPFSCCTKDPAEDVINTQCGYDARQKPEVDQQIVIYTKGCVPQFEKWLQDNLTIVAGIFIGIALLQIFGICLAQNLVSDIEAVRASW
# Tests used:
# [1] = biological target: T1, full-length TSPAN5-GFP, wild-type (human); assay: co-IP; HEK293 cells transfected with TSPAN5-GFP and HA-tagged NLG1 constructs, lysed in RIPA buffer; GFP-Trap magnetic beads 1 h at 4 °C; blots
# [2] = biological target: T2, TSPAN5 (rat (endogenous in adult rat hippocampus and cortex)); assay: co-IP; adult rat hippocampus and cortex lysates in RIPA buffer (1% NP40, 1% Triton X-100); α-TSPAN5 antibody overnight at 4 °C, protein A-agarose beads; blots
# [3] = biological target: AP-neuroligin-1 (UniProt Q99K10); assay: pull-down; HEK293 cells co-transfected with TSPAN5 constructs, AP-NLG1 and BirA-ER, lysed in RIPA buffer; biotinylated AP-NLG1 pulled down with streptavidin-agarose beads 3 h at 4 °C; blots
molecule,measurement,setting,value
HA-tagged wild-type NLG1 (from UniProt Q99K10 46-843),binding,[1],binds
neuroligin-1 (from UniProt Q62765 46-843),binding,[2],binds
"full-length TSPAN5-GFP, wild-type (protein, UniProt P62079 1-268) MSGKHYKGPEVSCCIKYFIFGFNVIFWFLGITFLGIGLWAWNEKGVLSNISSITDLGGFDPVWLFLVVGGVMFILGFAGCIGALRENTFLLKFFSVFLGIIFFLELTAGVLAFVFKDWIKDQLYFFINNNIRAYRDDIDLQNLIDFTQEYWQCCGAFGADDWNLNIYFNCTDSNASRERCGVPFSCCTKDPAEDVINTQCGYDARQKPEVDQQIVIYTKGCVPQFEKWLQDNLTIVAGIFIGIALLQIFGICLAQNLVSDIEAVRASW",binding,[3],binds
